Values quoted from earlier work, collected in patent publication US20140315870A1, “COMPOSITION COMPRISING A GLUCOCORTICOID AND A THIAZOLIDINEDIONE FOR INDUCING COMPELTE ADIPOGENIC DIFFERENTIATION OF MAMMALIAN STEM CELLS” (UNIVERSIDAD DEL DESARROLLO, priority 2011, published 2014).
For at least one compound, name, drawing or mass did not settle the structure.

Key:
osteoblasts = conditions: 48 hours
kidney epithelial cells = conditions: 48 hours

CN(CCOc1ccc(CC2SC(=O)NC2=O)cc1)c1ccccn1 (centres unmarked) [rosiglitazone]
gene expression induced by glucocorticoids (osteoblasts): increases
gene expression induced by glucocorticoids (kidney epithelial cells): rosiglitazone does not affect
